Data reported in US20230141630.

Legend:
Test in all cases: binding assay
[1] = test system: Group II Intron-RT (unspecified); conditions: concatemeric cDNA, 55 C; purified recombinant protein
[2] = test system: Induro RT (Group II Intron-RT); conditions: concatemeric cDNA >10 kb, 55 C 1 h; higher RT-qPCR sensitivity in FIG. 5B; purified recombinant protein; protein details: New England Biolabs
[3] = biological target: T1, TGIRT (Group II Intron-RT) (UniProt E2GM63); conditions: concatemeric cDNA >10 kb, 55 C 1 h; purified recombinant protein; protein details: Ingex
T1 sequence (looked up, limits assumed): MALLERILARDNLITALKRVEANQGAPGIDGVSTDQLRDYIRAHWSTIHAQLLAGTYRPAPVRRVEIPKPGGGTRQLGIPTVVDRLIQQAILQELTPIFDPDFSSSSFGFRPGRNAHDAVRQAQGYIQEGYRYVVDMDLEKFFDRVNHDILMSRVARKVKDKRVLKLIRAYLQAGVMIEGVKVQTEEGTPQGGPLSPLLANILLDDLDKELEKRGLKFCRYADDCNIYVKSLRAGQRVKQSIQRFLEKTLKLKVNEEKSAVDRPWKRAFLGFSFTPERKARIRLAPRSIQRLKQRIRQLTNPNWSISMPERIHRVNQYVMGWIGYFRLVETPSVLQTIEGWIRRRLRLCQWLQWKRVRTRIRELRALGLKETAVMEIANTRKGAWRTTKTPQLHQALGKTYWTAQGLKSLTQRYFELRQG

| Sequence | binding result [1] | binding result [2] | binding result [3] |
| --- | --- | --- | --- |
| AAAATCCGTTGACCTTAAACGGTCGTGTGGGTTCAAGTCCCTCCACCCCCACGCCGGAAACGCAATAGCCGAAAAACAAAAAACAAAAAAACCCCCCTCTCCCTCCCCCCCTAACGTTACTGGCCGAAGCCGCTTGGAATAAGGCCGGTGTGCGTTTGTCTATATGTTATTTTCCACCATATTGCCGTCTTTTGGCAATGTGAGGGCCCGGAAACCTGGCCCTGTCTTCTTGACGAGCATTCCTAGGGGTCTTTCCCCTCTCGCCAAAGGAATGCAAGGTCTGTTGAATGTCGTAAAAAAACAAAAAACAAAACGGCTATTATGCGTTACCGGCGAGACGCTACGGACTT / TCCAGAGGAACTGCTTCCTTC [circRNA 0.4 kb (Example 2) with DNA primer] | binds |  |  |
| AAAATCCGTTGACCTTAAACGGTCGTGTGGGTTCAAGTCCCTCCACCCCCACGCCGGAAACGCAATAGCCGAAAAACAAAAAACAAAAAAACCCCCCTCTCCCTCCCCCCCTAACGTTACTGGCCGAAGCCGCTTGGAATAAGGCCGGTGTGCGTTTGTCTATATGTTATTTTCCACCATATTGCCGTCTTTTGGCAATGTGAGGGCCCGGAAACCTGGCCCTGTCTTCTTGACGAGCATTCCTAGGGGTCTTTCCCCTCTCGCCAAAGGAATGCAAGGTCTGTTGAATGTCGTGAAGGAAGCAGTTCCTCTGGAAGCTTCTTGAAGACAAACAACGTCTGTAGCGACCCTTTGCAGGCAGCGGAACCCCCCACCTGGCGACAGGTGCCTCTGCGGCCAAAAGCCACGTGTATAAGATACACCTGCAAAGGCGGCACAACCCCAGTGCCACGTTGTGAGTTGGATAGTTGTGGAAAGAGTCAAATGGCTCTCCTCAAGCGTATTCAACAAGGGGCTGAAGGATGCCCAGAAGGTACCCCATTGTATGGGATCTGATCTGGGGCCTCGGTGCACATGCTTTACATGTGTTTAGTCGAGGTTAAAAAACGTCTAGGCCCCCCGAACCACGGGGACGTGGTTTTCCTTTGAAAAACACGATGATAATATGGCCACAACCATGGGAGTCAAAGTTCTGTTTGCCCTGATCTGCATCGCTGTGGCCGAGGCCAAGCCCACCGAGAACAACGAAGACTTCAACATCGTGGCCGTGGCCAGCAACTTCGCGACCACGGATCTCGATGCTGACCGCGGGAAGTTGCCCGGCAAGAAGCTGCCGCTGGAGGTGCTCAAAGAGATGGAAGCCAATGCCCGGAAAGCTGGCTGCACCAGGGGCTGTCTGATCTGCCTGTCCCACATCAAGTGCACGCCCAAGATGAAGAAGTTCATCCCAGGACGCTGCCACACCTACGAAGGCGACAAAGAGTCCGCACAGGGCGGCATAGGCGAGGCGATCGTCGACATTCCTGAGATTCCTGGGTTCAAGGACTTGGAGCCCATGGAGCAGTTCATCGCACAGGTCGATCTGTGTGTGGACTGCACAACTGGCTGCCTCAAAGGGCTTGCCAACGTGCAGTGTTCTGACCTGCTCAAGAAGTGGCTGCCGCAACGCTGTGCGACCTTTGCCAGCAAGATCCAGGGCCAGGTGGACAAGATCAAGGGGGCCGGTGGTGACTAAAAAAAACAAAAAACAAAACGGCTATTATGCGTTACCGGCGAGACGCTACGGACTT / TCCAGAGGAACTGCTTCCTTC [circRNA 1.3 kb with DNA primer] | binds | binds | binds |
| AAAATCCGTTGACCTTAAACGGTCGTGTGGGTTCAAGTCCCTCCACCCCCACGCCGGAAACGCAATAGCCGAAAAACAAAAAACAAAAAAACCCCCCTCTCCCTCCCCCCCTAACGTTACTGGCCGAAGCCGCTTGGAATAAGGCCGGTGTGCGTTTGTCTATATGTTATTTTCCACCATATTGCCGTCTTTTGGCAATGTGAGGGCCCGGAAACCTGGCCCTGTCTTCTTGACGAGCATTCCTAGGGGTCTTTCCCCTCTCGCCAAAGGAATGCAAGGTCTGTTGAATGTCGTTGGAGGTGCTCAAAGAGATGGAAGCCAATGCCCGGAAAGCTGGCTGCACCAGGGGCTGTCTGATCTGCCTGTCCCACATCAAGTGCACGCCCAAGATGAAGAAGTTCATCCCAGGACGCTGCCACACCTACGAAGGCGACAAAGAGTCCGCACAGGGCGGCATAGGCGAGGCGATCGTCGACATTCCTGAGATTCCTGGGTTCAAGGACTTGGAGCCCATGGAGCAGTTCATCGCACAGGTCGATCTGTGTGTGGACTGCACAACTGGCTGCCTCAAAGGGCTTGCCAACGTGCAGTGTTCTGACCTGCTCAAGAAGTGGCTGCCGCAACGCTGTGCGACCTTTGCCAGCAAGATCCAGGGCCAGGTGGACAAGATCAAGGGGGCCGGTGGTGACTAAAAAAAACAAAAAACAAAACGGCTATTATGCGTTACCGGCGAGACGCTACGGACTT / TCCAGAGGAACTGCTTCCTTC [circRNA 0.8 kb with DNA primer] | binds |  |  |

For at least one entry, the source does not settle the construct or the ends of the probe. For some assays here: Protein sequences can lack the tags named with them.
